Source: the supplement of paper PMC10849652
The other results are listed elsewhere or left out.

Protein sequences, listed by entry. Tags and fused reporters are not part of them. Lines headed by an entry give the natural chain unless they say otherwise; changes in a name come on top.
UniProt A1L020: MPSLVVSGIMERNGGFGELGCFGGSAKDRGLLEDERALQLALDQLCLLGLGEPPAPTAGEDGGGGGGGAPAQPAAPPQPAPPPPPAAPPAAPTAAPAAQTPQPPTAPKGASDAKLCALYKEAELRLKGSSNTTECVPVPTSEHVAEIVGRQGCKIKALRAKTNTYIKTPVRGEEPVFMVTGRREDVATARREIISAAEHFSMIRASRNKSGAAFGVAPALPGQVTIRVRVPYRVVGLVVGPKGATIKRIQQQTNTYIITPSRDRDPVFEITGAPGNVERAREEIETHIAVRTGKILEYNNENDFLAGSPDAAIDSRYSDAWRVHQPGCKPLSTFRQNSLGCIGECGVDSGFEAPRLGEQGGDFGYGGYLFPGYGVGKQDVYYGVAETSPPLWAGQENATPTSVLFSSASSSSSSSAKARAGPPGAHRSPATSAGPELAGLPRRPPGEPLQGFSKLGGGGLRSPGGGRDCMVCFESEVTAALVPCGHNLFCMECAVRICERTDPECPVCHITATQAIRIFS
UniProt Q5VZF2: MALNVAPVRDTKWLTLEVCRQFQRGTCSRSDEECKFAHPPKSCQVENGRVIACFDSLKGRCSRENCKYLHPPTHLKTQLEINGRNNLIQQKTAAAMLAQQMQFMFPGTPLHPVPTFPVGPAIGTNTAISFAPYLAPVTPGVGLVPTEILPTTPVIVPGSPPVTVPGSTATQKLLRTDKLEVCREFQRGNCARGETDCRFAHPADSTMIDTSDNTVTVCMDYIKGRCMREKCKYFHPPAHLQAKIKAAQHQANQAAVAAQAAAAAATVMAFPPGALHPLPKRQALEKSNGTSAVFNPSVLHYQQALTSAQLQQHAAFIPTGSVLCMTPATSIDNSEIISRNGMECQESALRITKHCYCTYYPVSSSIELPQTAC
UniProt Q5SR56: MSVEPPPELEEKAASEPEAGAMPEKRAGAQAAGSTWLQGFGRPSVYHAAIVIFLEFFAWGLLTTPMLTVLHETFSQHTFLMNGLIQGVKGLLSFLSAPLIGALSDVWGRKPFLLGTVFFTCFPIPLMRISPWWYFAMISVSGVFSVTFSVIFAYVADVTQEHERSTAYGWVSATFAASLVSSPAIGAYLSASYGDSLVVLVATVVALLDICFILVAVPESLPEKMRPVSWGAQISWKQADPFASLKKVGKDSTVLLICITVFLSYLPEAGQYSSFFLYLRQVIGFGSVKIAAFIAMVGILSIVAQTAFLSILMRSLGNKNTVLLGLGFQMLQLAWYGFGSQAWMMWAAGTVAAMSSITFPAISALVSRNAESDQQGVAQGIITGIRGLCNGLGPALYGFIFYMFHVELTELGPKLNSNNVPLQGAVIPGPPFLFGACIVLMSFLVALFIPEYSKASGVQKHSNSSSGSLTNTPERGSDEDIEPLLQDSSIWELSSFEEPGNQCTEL
UniProt Q9NWA0: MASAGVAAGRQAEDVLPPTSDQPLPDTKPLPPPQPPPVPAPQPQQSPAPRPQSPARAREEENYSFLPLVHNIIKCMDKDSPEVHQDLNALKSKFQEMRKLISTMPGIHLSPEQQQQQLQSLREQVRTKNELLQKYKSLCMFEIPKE
UniProt Q9P086: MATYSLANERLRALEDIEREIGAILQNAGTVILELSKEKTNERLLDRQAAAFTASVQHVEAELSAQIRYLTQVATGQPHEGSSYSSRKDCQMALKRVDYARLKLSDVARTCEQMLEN
UniProt Q7Z7M0: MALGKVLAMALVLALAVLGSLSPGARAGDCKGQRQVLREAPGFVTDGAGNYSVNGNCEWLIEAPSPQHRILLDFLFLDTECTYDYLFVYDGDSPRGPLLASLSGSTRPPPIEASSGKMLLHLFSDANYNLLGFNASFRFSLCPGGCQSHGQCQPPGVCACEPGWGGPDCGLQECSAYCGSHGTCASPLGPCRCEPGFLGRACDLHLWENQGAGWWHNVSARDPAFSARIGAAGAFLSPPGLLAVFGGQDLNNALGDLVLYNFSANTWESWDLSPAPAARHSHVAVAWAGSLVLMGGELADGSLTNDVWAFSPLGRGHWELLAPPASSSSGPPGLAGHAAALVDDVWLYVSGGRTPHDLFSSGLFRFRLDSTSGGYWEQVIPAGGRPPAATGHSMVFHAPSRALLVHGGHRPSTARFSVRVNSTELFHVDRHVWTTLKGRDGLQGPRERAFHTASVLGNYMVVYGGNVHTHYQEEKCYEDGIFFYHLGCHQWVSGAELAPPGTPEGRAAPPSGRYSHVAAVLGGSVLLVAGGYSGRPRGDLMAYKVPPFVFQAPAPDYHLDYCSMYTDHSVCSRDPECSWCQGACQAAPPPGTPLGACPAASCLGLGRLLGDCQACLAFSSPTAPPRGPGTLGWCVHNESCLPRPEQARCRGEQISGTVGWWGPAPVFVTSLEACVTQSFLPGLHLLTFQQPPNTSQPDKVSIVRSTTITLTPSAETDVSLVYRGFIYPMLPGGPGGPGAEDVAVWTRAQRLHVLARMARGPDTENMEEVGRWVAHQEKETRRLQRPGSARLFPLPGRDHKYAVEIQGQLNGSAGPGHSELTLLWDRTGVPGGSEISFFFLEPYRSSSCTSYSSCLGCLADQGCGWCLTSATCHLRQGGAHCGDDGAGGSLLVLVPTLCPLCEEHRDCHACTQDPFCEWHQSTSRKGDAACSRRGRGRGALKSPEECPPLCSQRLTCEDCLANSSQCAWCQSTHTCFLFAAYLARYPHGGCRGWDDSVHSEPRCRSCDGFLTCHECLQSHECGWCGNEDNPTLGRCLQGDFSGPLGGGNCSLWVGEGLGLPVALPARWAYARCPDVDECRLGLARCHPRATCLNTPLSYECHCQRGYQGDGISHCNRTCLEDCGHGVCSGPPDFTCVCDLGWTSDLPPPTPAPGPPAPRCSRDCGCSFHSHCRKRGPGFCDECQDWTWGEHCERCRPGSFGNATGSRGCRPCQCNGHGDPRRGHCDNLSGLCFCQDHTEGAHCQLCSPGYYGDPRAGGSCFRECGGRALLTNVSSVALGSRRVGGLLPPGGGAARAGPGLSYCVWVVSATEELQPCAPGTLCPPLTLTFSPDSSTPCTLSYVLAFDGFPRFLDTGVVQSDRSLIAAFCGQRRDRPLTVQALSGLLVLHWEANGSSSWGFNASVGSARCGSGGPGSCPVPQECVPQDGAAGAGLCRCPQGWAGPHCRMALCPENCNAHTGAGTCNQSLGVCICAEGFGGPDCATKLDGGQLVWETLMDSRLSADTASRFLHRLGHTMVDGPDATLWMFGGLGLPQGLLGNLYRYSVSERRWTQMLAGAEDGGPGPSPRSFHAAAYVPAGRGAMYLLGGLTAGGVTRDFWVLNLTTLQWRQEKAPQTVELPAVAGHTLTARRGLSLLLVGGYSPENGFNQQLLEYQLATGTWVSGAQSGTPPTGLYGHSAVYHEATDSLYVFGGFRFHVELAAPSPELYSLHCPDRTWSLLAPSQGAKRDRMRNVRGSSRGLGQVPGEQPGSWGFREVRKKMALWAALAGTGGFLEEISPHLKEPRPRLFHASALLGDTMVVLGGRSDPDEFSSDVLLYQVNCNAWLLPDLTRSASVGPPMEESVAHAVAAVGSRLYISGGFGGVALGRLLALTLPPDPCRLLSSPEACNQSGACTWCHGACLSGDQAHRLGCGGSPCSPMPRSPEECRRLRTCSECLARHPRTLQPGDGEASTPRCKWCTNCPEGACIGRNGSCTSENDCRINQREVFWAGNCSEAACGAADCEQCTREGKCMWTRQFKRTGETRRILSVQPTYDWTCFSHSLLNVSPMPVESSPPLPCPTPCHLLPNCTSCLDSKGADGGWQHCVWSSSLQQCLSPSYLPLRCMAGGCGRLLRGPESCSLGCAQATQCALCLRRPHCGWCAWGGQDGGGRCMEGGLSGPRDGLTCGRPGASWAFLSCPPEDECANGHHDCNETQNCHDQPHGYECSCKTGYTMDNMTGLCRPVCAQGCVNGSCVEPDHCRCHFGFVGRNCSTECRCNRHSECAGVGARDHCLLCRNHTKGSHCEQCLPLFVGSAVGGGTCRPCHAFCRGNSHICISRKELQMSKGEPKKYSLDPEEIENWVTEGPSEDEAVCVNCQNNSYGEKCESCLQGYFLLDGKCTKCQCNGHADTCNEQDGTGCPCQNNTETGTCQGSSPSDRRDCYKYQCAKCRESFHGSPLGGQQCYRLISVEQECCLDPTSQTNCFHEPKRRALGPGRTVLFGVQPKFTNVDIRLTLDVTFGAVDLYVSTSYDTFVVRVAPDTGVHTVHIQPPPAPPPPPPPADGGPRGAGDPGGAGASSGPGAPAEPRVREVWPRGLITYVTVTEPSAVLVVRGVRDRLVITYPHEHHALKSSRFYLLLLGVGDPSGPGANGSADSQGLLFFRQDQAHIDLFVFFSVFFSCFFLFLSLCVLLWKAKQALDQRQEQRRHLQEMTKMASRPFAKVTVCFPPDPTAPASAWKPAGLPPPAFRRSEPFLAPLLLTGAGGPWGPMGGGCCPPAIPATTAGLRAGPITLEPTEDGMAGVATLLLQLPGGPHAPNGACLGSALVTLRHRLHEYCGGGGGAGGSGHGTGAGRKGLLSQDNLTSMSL
UniProt Q00987, whole entry, looked up: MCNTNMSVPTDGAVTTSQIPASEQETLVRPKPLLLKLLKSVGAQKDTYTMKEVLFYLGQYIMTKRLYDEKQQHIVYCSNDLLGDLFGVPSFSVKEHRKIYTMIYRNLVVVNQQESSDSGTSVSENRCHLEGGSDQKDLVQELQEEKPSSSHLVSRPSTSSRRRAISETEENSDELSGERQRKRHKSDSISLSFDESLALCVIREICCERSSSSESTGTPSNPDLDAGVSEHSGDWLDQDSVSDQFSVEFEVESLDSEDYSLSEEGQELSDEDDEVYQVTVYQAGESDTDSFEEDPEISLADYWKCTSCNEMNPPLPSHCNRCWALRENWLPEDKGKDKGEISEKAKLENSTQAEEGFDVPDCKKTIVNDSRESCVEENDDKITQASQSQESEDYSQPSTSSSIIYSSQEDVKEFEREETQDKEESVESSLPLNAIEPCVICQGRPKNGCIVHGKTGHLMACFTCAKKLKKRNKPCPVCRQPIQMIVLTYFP
UniProt Q8IX19: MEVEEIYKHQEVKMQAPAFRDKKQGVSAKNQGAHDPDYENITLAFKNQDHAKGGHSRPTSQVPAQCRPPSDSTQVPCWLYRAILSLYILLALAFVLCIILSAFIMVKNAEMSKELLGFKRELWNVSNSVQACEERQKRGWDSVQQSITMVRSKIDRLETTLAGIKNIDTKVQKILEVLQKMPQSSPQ
UniProt A4D2B0: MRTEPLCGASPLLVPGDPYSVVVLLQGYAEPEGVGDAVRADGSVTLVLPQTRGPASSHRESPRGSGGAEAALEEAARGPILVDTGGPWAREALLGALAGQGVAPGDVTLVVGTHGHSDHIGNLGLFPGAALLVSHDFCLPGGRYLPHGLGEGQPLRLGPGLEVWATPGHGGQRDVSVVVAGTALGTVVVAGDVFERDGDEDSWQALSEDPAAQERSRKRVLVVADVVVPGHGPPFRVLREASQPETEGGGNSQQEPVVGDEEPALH
UniProt Q86XA0: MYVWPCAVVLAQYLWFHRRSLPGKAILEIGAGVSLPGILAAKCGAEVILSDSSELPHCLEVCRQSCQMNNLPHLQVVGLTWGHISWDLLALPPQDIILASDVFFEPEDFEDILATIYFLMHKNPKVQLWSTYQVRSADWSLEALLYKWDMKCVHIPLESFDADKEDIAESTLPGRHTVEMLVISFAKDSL
UniProt P50579: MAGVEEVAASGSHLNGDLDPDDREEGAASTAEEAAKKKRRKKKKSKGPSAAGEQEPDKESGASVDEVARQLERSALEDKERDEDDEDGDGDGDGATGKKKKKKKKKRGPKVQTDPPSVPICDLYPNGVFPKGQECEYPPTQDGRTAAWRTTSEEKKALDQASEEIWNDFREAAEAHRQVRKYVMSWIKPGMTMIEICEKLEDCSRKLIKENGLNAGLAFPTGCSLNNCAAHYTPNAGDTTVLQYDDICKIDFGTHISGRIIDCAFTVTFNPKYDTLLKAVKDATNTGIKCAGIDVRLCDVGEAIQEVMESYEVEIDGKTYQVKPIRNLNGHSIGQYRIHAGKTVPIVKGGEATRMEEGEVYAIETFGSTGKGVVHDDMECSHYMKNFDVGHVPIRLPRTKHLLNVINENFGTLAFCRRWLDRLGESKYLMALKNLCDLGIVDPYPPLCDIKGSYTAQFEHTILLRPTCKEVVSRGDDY
UniProt A6NJ78: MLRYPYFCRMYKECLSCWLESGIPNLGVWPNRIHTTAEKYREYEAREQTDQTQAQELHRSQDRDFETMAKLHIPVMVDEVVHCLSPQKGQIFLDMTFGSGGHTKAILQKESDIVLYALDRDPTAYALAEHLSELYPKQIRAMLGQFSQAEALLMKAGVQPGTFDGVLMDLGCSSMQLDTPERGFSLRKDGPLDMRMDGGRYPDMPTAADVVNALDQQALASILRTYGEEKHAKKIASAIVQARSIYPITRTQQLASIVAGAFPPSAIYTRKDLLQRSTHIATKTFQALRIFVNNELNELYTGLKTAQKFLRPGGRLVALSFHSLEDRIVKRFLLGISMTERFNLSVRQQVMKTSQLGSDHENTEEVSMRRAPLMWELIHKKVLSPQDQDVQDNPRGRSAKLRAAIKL

Experiments:
Assay in all cases: log2 fold change, soluble protein after heating vs DMSO (PISA); higher = thermal stabilisation; K562 lysate, 10 uM; active = over 0.2 and 3.5 SD of the protein, either way, in both replicates (recomputed)
[1] = compound: CC(=O)c1cnc2ccc(-c3cc(Cl)c(O)c(Cl)c3)nc2c1N[C@H]1CC[C@H](CN(C)C)CC1
Outline: (§1)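 K562 pellets were dounce-homogenised in PBS pH 7.4 with 1 mM MgCl2, and the crude extract at 1 mg/mL protein was treated with 10 μM compound for 30 min. Aliquots were heated for 3 min across 48°C-58°C, pooled, and brought to 0.5% NP-40 at 4°C; soluble protein was the supernatant after 21,000xg for 90 min. Soluble protein was quantified by TMTpro 16plex LC-MS/MS with channel sums equalised, and reported as log2 fold change in thermal stability against DMSO controls, with values from duplicates.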

ralimetinib = compound: CC(C)(C)Cn1c(N)nc2ccc(-c3[nH]c(C(C)(C)C)nc3-c3ccc(F)cc3)nc21 [ralimetinib]
Outline: as §1

[2] = compound: CC(C)(O)CC(=O)NCCn1ccc2ncnc(Nc3ccc(Oc4cccc(C(F)(F)F)c4)c(Cl)c3)c21
Outline: as §1

[3] = compound: CC(C)C1=C2N=C(C=C(N2N=C1)NCC3=CC=CC=C3)NCCCCCCN
Outline: as §1

[4] = compound: CC1=C(C(CC(=O)N1)C2=CC=C(C=C2)C(F)(F)F)C(=O)NC3=C(C=C4C(=C3)C=NN4)F
Outline: as §1

[5] = compound: CC1=C(C2=C(C=C1)C(=O)C3=CC=CC=C3N2CCCN)C
Outline: as §1

[6] = compound: CC1=C(C=C(C=C1)NC(=O)C2=CC(=CC=C2)C(C)(C)C#N)NC3=CC4=C(C=C3)N=CN(C4=O)C
Outline: as §1

[7] = compound: CC1=C(C=C(C=C1)NC(=O)C2=CC(=CC=C2)N(C)C)NC(=O)C3=CC=C(C=C3)O
Outline: as §1

[8] = compound: CC1=CC=C(C=C1)SC2=C3C=C(SC3=CN=C2)C(=O)N
Outline: as §1

ibrutinib = compound: C=CC(=O)N1CCC[C@@H](n2nc(-c3ccc(Oc4ccccc4)cc3)c3c(N)ncnc32)C1 [ibrutinib]
Outline: as §1

Measured: log2 fold change

MED28 (UniProt Q9H204)
inactive: [1] -0.067 | ralimetinib -0.032 | [2] -0.025 | [3] -0.002 | [4] -0.088 | [5] -0.039 | [6] 0.11 | [7] 0.021 | [8] 0.009

MEN1 (UniProt O00255)
inactive: [1] -0.22 | ralimetinib -0.049 | [2] -0.181 | [3] -0.057 | [4] -0.098 | [5] -0.051 | [6] 0.207 | [7] -0.084 | [8] 0.285

MBD6 (UniProt Q96DN6)
inactive: [5] -0.292

MEX3A (UniProt A1L020)
inactive: ralimetinib -0.21 | [2] -0.123 | [4] -0.076 | [5] 0.003 | [7] -0.162

MCTS2P, A0A3B3IRV3
inactive: [1] -0.347 | ralimetinib -0.03 | [2] -0.085 | [3] -0.036 | [5] 0 | [6] -0.148 | [7] 0.031 | [8] -0.14

MDK (UniProt P21741)
inactive: [1] 0.01 | ralimetinib 0.018 | [2] -0.039 | [3] -0.076 | [4] 0.024 | [5] 0.025 | [6] -0.131 | [7] 0.043 | [8] 0.01

MBNL2 (UniProt Q5VZF2)
inactive: [1] 0.084 | ralimetinib 0.046 | [2] -0.002 | [3] -0.174 | [6] -0.039 | [7] -0.039 | [8] -0.059

MFSD14B (UniProt Q5SR56)
inactive: ralimetinib 0.111 | [2] 0.032 | [3] -0.099 | [4] -0.125 | [6] -0.049 | [7] -0.243

MEGF9 (UniProt Q9H1U4)
inactive: ibrutinib 0.216 | ralimetinib -0.101 | [2] -0.031 | [3] -0.08 | [5] 0.049 | [7] -0.02

MCFD2 isoform 2 (UniProt Q8NI22)
inactive: [1] 0.03 | [8] 0.217

MDM4 (UniProt O15151)
inactive: [5] 0.216 | [6] -0.033

MED29 (UniProt Q9NX70)
inactive: ralimetinib -0.028 | [2] 0.017 | [3] -0.073 | [5] -0.121 | [6] -0.016 | [7] 0.013

MFAP3 (UniProt P55082)
inactive: ralimetinib 0.051 | [2] 0.102 | [3] 0.008 | [5] -0.198 | [6] -0.02 | [7] 0.08

MBTPS2 (UniProt O43462)
inactive: [6] 0.044

MCPH1 (UniProt Q8NEM0)
inactive: [6] 0.135

MED9 (UniProt Q9NWA0)
inactive: [1] 0.019 | ralimetinib 0.007 | [2] 0.059 | [4] -0.051 | [5] -0.033 | [6] 0.023 | [7] 0 | [8] 0.053

MED11 (UniProt Q9P086)
inactive: ibrutinib -0.074 | [3] -0.104 | [5] 0.051 | [6] 0.064

MBD4 (UniProt O95243)
inactive: [1] 0.248 | [4] -0.034 | [5] 0.006 | [6] -0.007 | [8] 0.127

MEGF8 (UniProt Q7Z7M0)
inactive: ibrutinib 0 | ralimetinib -0.019 | [2] -0.124 | [3] -0.057 | [5] 0.091 | [6] 0.079 | [7] 0.154

MDM2 isoform 11 (UniProt Q00987)
inactive: ibrutinib -0.071 | ralimetinib 0.038 | [2] -0.08 | [3] -0.006 | [6] -0.074 | [7] 0.076

Taken from the results shown (ten entries):
MEGF9 (UniProt Q9H1U4)
inactive: ibrutinib 0.216 | ralimetinib -0.101 | [2] -0.031 | [3] -0.08 | [5] 0.049 | [7] -0.02

MCFD2 isoform 2 (UniProt Q8NI22)
inactive: [1] 0.03 | [8] 0.217

MDM4 (UniProt O15151)
inactive: [5] 0.216 | [6] -0.033

MED29 (UniProt Q9NX70)
inactive: ralimetinib -0.028 | [2] 0.017 | [3] -0.073 | [5] -0.121 | [6] -0.016 | [7] 0.013

MFAP3 (UniProt P55082)
inactive: ralimetinib 0.051 | [2] 0.102 | [3] 0.008 | [5] -0.198 | [6] -0.02 | [7] 0.08

MBTPS2 (UniProt O43462)
inactive: [6] 0.044

MCPH1 (UniProt Q8NEM0)
inactive: [6] 0.135

MED9 (UniProt Q9NWA0)
inactive: [1] 0.019 | ralimetinib 0.007 | [2] 0.059 | [4] -0.051 | [5] -0.033 | [6] 0.023 | [7] 0 | [8] 0.053

MED11 (UniProt Q9P086)
inactive: ibrutinib -0.074 | [3] -0.104 | [5] 0.051 | [6] 0.064

MBD4 (UniProt O95243)
inactive: [1] 0.248 | [4] -0.034 | [5] 0.006 | [6] -0.007 | [8] 0.127

Following part:

MCEMP1 (UniProt Q8IX19)
inactive: [1] -0.174 | [5] -0.114 | [6] -0.099 | [8] -0.018

MFSD6 (UniProt Q6ZSS7)
inactive: ibrutinib -0.092 | ralimetinib 0.002 | [2] -0.05 | [3] -0.015 | [5] -0.256 | [7] -0.01

MEIS1 (UniProt O00470)
inactive: ibrutinib 0.117 | [6] -0.04

MEF2C isoform 2 (UniProt Q06413)
inactive: [1] 0.007 | [4] -0.049 | [5] -0.173 | [6] -0.022 | [8] 0.049

MELTF (UniProt P08582)
inactive: ibrutinib -0.007 | [3] -0.186 | [6] 0.088

MELK (UniProt Q14680)
inactive: [1] -0.128 | ralimetinib -0.061 | [2] 0.011 | [3] 0.082 | [4] 0.063 | [5] -0.044 | [6] 0.001 | [7] 0.047 | [8] 0.104

MBLAC1 (UniProt A4D2B0)
inactive: [1] -0.059 | [3] 0.045 | [8] 0.023

MFSD9 (UniProt Q8NBP5)
inactive: [5] -0.153

MEIOB isoform 2 (UniProt Q8N635)
inactive: [4] 0.088 | [5] -0.239

MBTD1 (UniProt Q05BQ5)
inactive: ralimetinib 0.088 | [2] -0.052 | [6] -0.066 | [7] 0.07

METTL23 (UniProt Q86XA0)
inactive: [1] -0.022 | [4] 0.081 | [8] 0.083

METTL7B (UniProt Q6UX53)
inactive: [3] 0.212

MATK isoform 2 (UniProt P42679)
inactive: [1] -0.019 | ralimetinib 0.083 | [2] 0.271 | [4] 0.102 | [7] -0.016 | [8] -0.025

METAP2 isoform 2 (UniProt P50579)
inactive: ralimetinib -0.07 | [2] -0.124 | [4] 0.032 | [7] -0.246

MED24 (UniProt F5H5K2)
inactive: [4] 0.237

METTL15 (UniProt A6NJ78)
inactive: ralimetinib 0.037 | [2] 0.015 | [4] -0.079 | [6] -0.058 | [7] 0.041

MFSD12 isoform 3 (UniProt Q6NUT3)
inactive: [1] 0.008 | [3] 0.053 | [4] 0.221 | [5] -0.041 | [6] 0.048 | [8] -0.066

METTL17 isoform 3 (UniProt Q9H7H0)
inactive: [4] -0.027

MEX3C (UniProt Q5U5Q3)
inactive: [3] 0.039 | [4] -0.037 | [6] 0.064
